Each structure is given as a SMILES string. The list is a part of this screen's results and no random one: it gathers tests that were run many times, whatever their T/C, doses with no T/C, and many T/C values between a quarter and a half above the control. Further doses and runs are listed elsewhere. T/C gives the treated animals as a percentage of the vehicle group. Some doses have a count of surviving animals in place of a T/C: the source holds a T/C of zero for them, seemingly a mark for toxic or unscored doses. Some doses without a T/C left all or most animals alive at the check, yet need not have been tolerated: survival well below the control is almost never listed, so the zero probably covers shortened survival too. Counts of survivors are from the toxicity check (mostly the fifth day) where no day follows; animals may have died later. Schedules are NCI's codes, read here as Q, the interval in days (D) or hours (H), X, the number of doses. Some schedules carry Z or #; the key to these is not given. Some doses were run more than once; their values stand side by side, smallest first. Where survival is the endpoint, this PubChem deposit counts one and a half times the control or more as active, and values a quarter to a half above the control carry no call in these data; other NCI protocols may use other cut-offs. Some T/C values are followed by the survivors on the day toxicity was checked, most often the fifth; without a count, all were alive then.

Experimental findings from PubChem BioAssay AID248 (DTP/NCI, 2004) are described below.

The test relates to L1210 leukemia ip in BDF1 mice, survival T/C. The test can be described thus: NCI In Vivo Anticancer Drug Screen. Data for tumor model L1210 Leukemia (intraperitoneal) in B6D2F1 (BDF1) mice. Conditions: T/C endpoint: mean survival time, higher T/C = longer survival.
Setting [1] is: dose: 400.0 mg/kg/injection, schedule: Q04DX003 (ip), vehicle: saline.
[2] abbreviates: dose: 400.0 mg/kg/injection, schedule: Q01DX001 (ip), vehicle: carboxymethylcellulose (CMC).
The mark [3] stands for this setting: dose: 200.0 mg/kg/injection, schedule: Q04DX003 (ip), vehicle: saline.
Where [4] appears, read: dose: 100.0 mg/kg/injection, schedule: Q04DX003 (ip), vehicle: saline.
The mark [5] stands for this setting: dose: 400.0 mg/kg/injection, schedule: Q01DX001 (ip), vehicle: saline.

Take `Cc1cc([NH-])c([NH-])cc1C.[Cl][Pt+2][Cl]`: the T/C was 141 % of control [5 of 6 alive] (dose: 8.2 mg/kg/injection, schedule: Q01DX009 (ip), vehicle: water); 127 % of control (dose: 12.5 mg/kg/injection, schedule: Q01DX009 (ip), vehicle: other); 128 % of control (dose: 12.5 mg/kg/injection, schedule: Q01DX009 (ip), vehicle: water); 127 % of control (dose: 12.5 mg/kg/injection, schedule: Q04DX003 (ip), vehicle: other); 132 % of control (dose: 25.0 mg/kg/injection, schedule: Q04DX003 (ip), vehicle: other); 127 % of control (dose: 25.0 mg/kg/injection, schedule: Q04DX003 (ip), vehicle: saline). The survivor count (dose: 50.0 mg/kg/injection, schedule: Q01DX009 (ip), vehicle: other) is on record as 6 of 6; the survivor count (dose: 100.0 mg/kg/injection, schedule: Q01DX009 (ip), vehicle: other) is listed as 1 of 6; the survivor count (dose: 200.0 mg/kg/injection, schedule: Q04DX003 (ip), vehicle: other) is 5 of 6; the survivor count under setting [1] was 6 of 6.
With `C/C=C/Sc1ccccc1C(=O)O`, the survivor count under setting [2] is reported as 2 of 6.
`CCC(=N)C1CCCCC1`: the survivor count (dose: 300.0 mg/kg/injection, schedule: Q01DX001 (ip), vehicle: carboxymethylcellulose (CMC)) is recorded as 0 of 6.
As to `NC(=O)c1c(N)n(C2OC(CO)C(O)C2O)c2ncnc(N)c12` (configuration not stated), the T/C is, setting by setting: (dose: 60.0 mg/kg/injection, schedule: Q01DX005 (ip), vehicle: saline) 144 % of control; (dose: 100.0 mg/kg/injection, schedule: Q01DX005 (ip), vehicle: saline) 125 and 130 % of control [5 of 6 alive]; (dose: 120.0 mg/kg/injection, schedule: Q01DX005 (ip), vehicle: saline) 130 % of control [5 of 6 alive]. In addition, the survivor count (dose: 200.0 mg/kg/injection, schedule: Q01DX005 (ip), vehicle: saline) is 3 of 6.
Consider `O=C(NC(=S)Nc1ccccc1C(=O)O)c1ccccc1`, for which the T/C (dose: 100.0 mg/kg/injection, schedule: Q01DX009 (ip), vehicle: saline sonified) was 131 % of control [5 of 6 alive]. Further, the survivor count (dose: 400.0 mg/kg/injection, schedule: Q04DX003 (ip), vehicle: saline sonified) is 1 of 6.
Turning to `CN(C)CCC/C=N/Nc1ccc(Cl)cc1[N+](=O)[O-]`, the survivor count (dose: 400.0 mg/kg/injection, schedule: Q04DX003 (ip), vehicle: saline with Tween-80) is 0 of 6.
On to `Fc1ccc(C(Cl)Cl)cc1`, for which the survivor count is, setting by setting: under setting [3], 6 of 6; (dose: 400.0 mg/kg/injection, schedule: Q01DX009 (ip), vehicle: saline) 5 of 6.
Take `CCCCC/C(C)=N\Nc1ccccn1`: the survivor count by setting is: (dose: 100.0 mg/kg/injection, schedule: Q01DX009 (ip), vehicle: Klucel (hydroxypropylcellulose) (HPC)) 1 of 6; (dose: 150.0 mg/kg/injection, schedule: Q01DX009 (ip), vehicle: acetone) 0 of 6; (dose: 200.0 mg/kg/injection, schedule: Q04DX003 (ip), vehicle: saline with Tween-80) 1 of 6; (dose: 225.0 mg/kg/injection, schedule: Q01DX009 (ip), vehicle: acetone) 0 of 6.
Regarding `CCOC(=O)NCC[N+](C)(C)C`, the survivor count reads like this: under setting [4], 1 of 6; under setting [3], 0 of 6; under setting [1], 0 of 6.
As for `Cc1csc(C)n1.Cc1csc(C)n1.Cc1csc(C)n1.Cc1csc(C)n1.[Cl][Rh][Cl]`, the survivor count by setting is: (dose: 50.0 mg/kg/injection, schedule: Q04DX003 (ip), vehicle: distilled water + Tween-80) 0 of 6; (dose: 100.0 mg/kg/injection, schedule: Q04DX003 (ip), vehicle: distilled water + Tween-80) 0 of 6; (dose: 200.0 mg/kg/injection, schedule: Q04DX003 (ip), vehicle: distilled water + Tween-80) 0 of 6.
As for `CCCNC(=O)c1cc(NC(=O)Nc2ccc(C3=NCCCN3)cc2)cc(NC(=O)Nc2ccc(C3=NCCCN3)cc2)c1`, the survivor count (dose: 168.0 mg/kg/injection, schedule: Q01DX Z (ip), vehicle: carboxymethylcellulose (CMC)) is on record as 6 of 6.
For `Clc1ccc2c(CBr)ccnc2c1`, under setting [5], the survivor count was 0 of 6.
Take `CCCCCCCCN1CCCNCC1`: the survivor count is, setting by setting: (dose: 50.0 mg/kg/injection, schedule: Q01DX009 (ip), vehicle: saline) 3 of 6; under setting [4], 2 of 6; under setting [3], 0 of 6; under setting [1], 0 of 6.
On to `O=C(O)CCN1CCN(c2cccc(Cl)c2)CC1`, for which the survivor count under setting [5] is recorded as 0 of 6.
Take `Cc1ccc(NCC(O)CN2CCCCC2)cc1` (configuration not stated): the survivor count reads like this: (dose: 75.0 mg/kg/injection, schedule: Q01DX009 (ip), vehicle: saline) 0 of 6; (dose: 150.0 mg/kg/injection, schedule: Q01DX009 (ip), vehicle: saline) 0 of 6; (dose: 300.0 mg/kg/injection, schedule: Q01DX009 (ip), vehicle: saline) 0 of 6.
On to `CCN(CC)CCN(C)C(=O)C1C(c2ccccc2)C1c1ccccc1` (configuration not stated), for which the survivor count is 1 of 3 and 3 of 3 (dose: 100.0 mg/kg/injection, schedule: Q04DX002 (ip), vehicle: Klucel (hydroxypropylcellulose) (HPC)); 0 of 3 (dose: 200.0 mg/kg/injection, schedule: Q04DX002 (ip), vehicle: Klucel (hydroxypropylcellulose) (HPC)); 0 of 3 (dose: 400.0 mg/kg/injection, schedule: Q04DX002 (ip), vehicle: Klucel (hydroxypropylcellulose) (HPC)).
Turning to `O=C(O)/C(=C\c1ccc([N+](=O)[O-])cc1)c1cccc2ccccc12`, the survivor count (dose: 400.0 mg/kg/injection, schedule: Q01DX009 (ip), vehicle: Klucel (hydroxypropylcellulose) (HPC)) is 0 of 6.
`[Cu+].[S-]c1ccsc1`: the survivor count by setting is: (dose: 100.0 mg/kg/injection, schedule: Q01DX001 (ip), vehicle: carboxymethylcellulose (CMC)) 0 of 4; (dose: 200.0 mg/kg/injection, schedule: Q01DX001 (ip), vehicle: carboxymethylcellulose (CMC)) 0 of 4; under setting [2], 1 of 4.
Take `NC(=O)c1ccc(NC(=O)CCC(=O)Nc2ccc(C(N)=O)cn2)nc1`: the survivor count is given as 7 of 7 (dose: 10.0 mg/kg/injection, schedule: Q01DX Z (ip), vehicle: carboxymethylcellulose (CMC)); 5 of 6 (dose: 20.0 mg/kg/injection, schedule: Q01DX Z (ip), vehicle: carboxymethylcellulose (CMC)); 0 of 6 (dose: 40.0 mg/kg/injection, schedule: Q01DX Z (ip), vehicle: carboxymethylcellulose (CMC)).
Turning to `CN=C(c1ccc(NC(=O)c2cc(N)cc(C(=O)Nc3ccc(C(=NC)N(C)C)cc3)c2)cc1)N(C)C`, the survivor count by setting is: (dose: 60.0 mg/kg/injection, schedule: Q01DX Z (ip), vehicle: carboxymethylcellulose (CMC)) 0 of 6; (dose: 120.0 mg/kg/injection, schedule: Q01DX Z (ip), vehicle: carboxymethylcellulose (CMC)) 0 of 6.
For the molecule `Cc1coc(NS(=O)(=O)c2ccc(N=Nc3cc(N=Nc4ccccc4)c(N)nc3N)cc2)c1C`, the survivor count under setting [2] is listed as 2 of 4.
On to `N=C(N)SCc1ccc([N+](=O)[O-])cc1`, for which the survivor count under setting [5] is 0 of 4.
For `CCOC(=O)C1(c2ccccc2)CCN(CCC(=O)c2ccc(F)cc2)CC1`, the survivor count (dose: 400.0 mg/kg/injection, schedule: Q01DX001 (ip), vehicle: Klucel (hydroxypropylcellulose) (HPC)) is 1 of 6.
For the molecule `CN=C(N)N(C)/N=C(C)\C=N\N(C)C(N)=NC`, the survivor count (dose: 960.0 mg/kg/injection, schedule: Q01DX Z (oral), vehicle: carboxymethylcellulose (CMC)) is on record as 5 of 6 and the survivor count (dose: 1920.0 mg/kg/injection, schedule: Q01DX Z (oral), vehicle: carboxymethylcellulose (CMC)) is recorded as 0 of 6.
Take `NCCCCS(=O)(=O)Nc1ccc(Nc2c3ccccc3nc3cc([N+](=O)[O-])ccc23)cc1`: the T/C is 134 % of control (dose: 4.8 mg/kg/injection, schedule: Q01DX009 (ip), vehicle: saline); 136 % of control (dose: 7.2 mg/kg/injection, schedule: Q01DX009 (ip), vehicle: saline); 139 % of control (dose: 11.0 mg/kg/injection, schedule: Q01DX009 (ip), vehicle: saline). The survivor count (dose: 200.0 mg/kg/injection, schedule: Q01DX009 (ip), vehicle: saline) is on record as 2 of 6.
